Some compounds share one wording; it may come from a single statement. Where no end group is shown, it is not given here.
Test system: MCF-7 cells
Experiment: Confocal microscopy of live cells, cellular distribution of FITC-labeled peptides
Type: cell-based, human
Conditions: 5 μM FITC-labeled peptide, 1 h, 37 °C, serum-free stimulation medium, live-cell confocal microscopy

Protein sequences, listed by entry. Tags and fused reporters are not part of them. Lines headed by an entry give the natural chain unless they say otherwise; changes in a name come on top.
UniProt Q15788: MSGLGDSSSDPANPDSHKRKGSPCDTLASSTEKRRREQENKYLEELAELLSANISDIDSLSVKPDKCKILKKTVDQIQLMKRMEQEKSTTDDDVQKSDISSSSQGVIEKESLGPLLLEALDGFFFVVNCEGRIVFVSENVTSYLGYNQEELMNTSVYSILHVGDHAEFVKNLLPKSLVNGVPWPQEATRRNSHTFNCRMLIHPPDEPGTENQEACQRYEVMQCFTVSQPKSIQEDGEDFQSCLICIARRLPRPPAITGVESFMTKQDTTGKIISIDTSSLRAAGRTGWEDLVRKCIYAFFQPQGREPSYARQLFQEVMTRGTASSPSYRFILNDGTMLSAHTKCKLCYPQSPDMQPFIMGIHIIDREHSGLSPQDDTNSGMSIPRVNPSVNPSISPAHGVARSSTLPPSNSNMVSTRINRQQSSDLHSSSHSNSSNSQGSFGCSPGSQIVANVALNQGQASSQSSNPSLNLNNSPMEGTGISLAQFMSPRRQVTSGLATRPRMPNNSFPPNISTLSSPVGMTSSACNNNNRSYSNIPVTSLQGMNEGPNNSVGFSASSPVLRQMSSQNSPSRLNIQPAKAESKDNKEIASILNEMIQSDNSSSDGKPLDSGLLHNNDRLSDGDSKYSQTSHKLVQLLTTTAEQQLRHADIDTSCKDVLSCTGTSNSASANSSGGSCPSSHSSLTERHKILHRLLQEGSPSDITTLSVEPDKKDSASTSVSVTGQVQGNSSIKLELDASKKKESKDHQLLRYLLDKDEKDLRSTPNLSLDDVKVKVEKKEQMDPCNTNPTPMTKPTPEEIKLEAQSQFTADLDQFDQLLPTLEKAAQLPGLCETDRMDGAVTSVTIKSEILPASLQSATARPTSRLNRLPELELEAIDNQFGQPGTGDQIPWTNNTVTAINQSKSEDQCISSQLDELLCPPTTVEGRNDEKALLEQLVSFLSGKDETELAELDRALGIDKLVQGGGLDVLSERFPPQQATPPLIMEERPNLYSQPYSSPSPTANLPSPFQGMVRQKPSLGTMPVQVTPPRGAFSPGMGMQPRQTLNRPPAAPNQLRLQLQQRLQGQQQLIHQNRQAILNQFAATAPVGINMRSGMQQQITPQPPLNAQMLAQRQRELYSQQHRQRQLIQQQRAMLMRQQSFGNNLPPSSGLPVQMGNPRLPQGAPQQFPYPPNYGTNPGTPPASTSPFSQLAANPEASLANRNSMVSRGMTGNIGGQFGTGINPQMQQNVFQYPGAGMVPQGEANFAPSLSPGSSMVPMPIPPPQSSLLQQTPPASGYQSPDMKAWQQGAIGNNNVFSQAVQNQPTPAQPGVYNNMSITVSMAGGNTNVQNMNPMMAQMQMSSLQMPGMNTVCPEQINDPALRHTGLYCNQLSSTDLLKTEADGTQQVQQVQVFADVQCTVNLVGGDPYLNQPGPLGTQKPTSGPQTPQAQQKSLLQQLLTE

Row | Substance | Cellular uptake / subcellular localization
1 | PKKKRKVAGYLLGKINLKALAALAKKILYSQTSHKLVQLLTTAEQQ [TP10-SRC1LXXLL] | detected in the cytoplasm and nucleus
2 | NLS-RRRRRRR-YSQTSHKLVQLLTTAEQQ [R7-SRC1LXXLL] | detected in the cytoplasm and nucleus
3 | NLS-RRRRRRR-PQMQQNVFQYPGAGMVPQGEANF (NPQMQQNVFQYPGAGMVPQGEANF; N-terminal R7; UniProt Q15788 1222-1245, looked up, fragment) [R7-SRC1_1222–1245, randomly chosen non-structured fragment of SRC-1 with N-terminal R7; negative control] | detected in the cytoplasm and nucleus

— PMC4013589, “LXXLL Peptide Converts Transportan 10 to a Potent Inducer of Apoptosis in Breast Cancer Cells” (International Journal of Molecular Sciences, 2014)
